According to PubChem BioAssay AID504847 (National Center for Advancing Translational Sciences (NCATS), 2011):
The campaign covered roughly 400,000 compounds. About 3,700 (0.93%) were called active. Inconclusive results, whose numbers are uncertain, are shown with a selection of clear calls. Calls follow the shape of the dose curve; as a rule, active = well fitted inhibition curve with a large enough effect; inconclusive = small, poorly fitted or top-dose-only effect, or another doubt; inactive = no such curve, though single readings can be large or run the other way. Potencies of inconclusive entries are doubtful fits and often do not repeat.

Protein sequences, listed by entry. Tags and fused reporters are not part of them. Lines headed by an entry give the natural chain unless they say otherwise; changes in a name come on top.
UniProt P11473: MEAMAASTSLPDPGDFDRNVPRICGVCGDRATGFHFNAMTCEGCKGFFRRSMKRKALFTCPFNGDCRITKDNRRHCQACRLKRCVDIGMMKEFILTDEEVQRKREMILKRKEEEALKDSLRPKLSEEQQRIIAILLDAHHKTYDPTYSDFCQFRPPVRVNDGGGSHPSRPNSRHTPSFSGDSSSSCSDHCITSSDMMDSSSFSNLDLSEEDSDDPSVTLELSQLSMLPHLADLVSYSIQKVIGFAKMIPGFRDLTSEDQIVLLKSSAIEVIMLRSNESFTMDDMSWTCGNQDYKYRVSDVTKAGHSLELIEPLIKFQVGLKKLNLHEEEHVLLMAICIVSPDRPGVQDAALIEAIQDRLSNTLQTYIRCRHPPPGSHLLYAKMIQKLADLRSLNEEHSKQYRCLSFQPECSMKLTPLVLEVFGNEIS

target: Vitamin D3 receptor (Homo sapiens) (UniProt P11473); test: Inhibitors of the vitamin D receptor (VDR): qHTS; conditions: VDR-SRC2-3 peptide fluorescence polarization, 2 h; max response, negative = inhibition: stronger effect = lower value
In short: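 Two reagent solutions held at 4 deg C in the dark were dispensed, compounds pinned at 23 nl, and the mixture incubated 2 h at room temperature. Read-out: fluorescence polarization of VDR–SRC2-3 peptide binding.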
% is scaled to controls: 0 for no effect and ±100 for the full control effect; potency is read from the fitted curve at half-maximal effect.

Compound	Potency	max response, negative = inhibition
CCCNc1ccc(C(=O)OCC)cc1[N+](=O)[O-]	inconclusive: 79.4 µM [inhibitor, partial curve, poor fit]	
C[C@H](O)[C@H](O)[C@H]1CNc2nc(N)[nH]c(=O)c2N1	active: 79.4 µM	
CCC1CC=CC2C1C(=O)N(Cc1ccccc1)C2c1cc(C)ccc1F (centres undefined)	inconclusive: 56.2 µM [inhibitor, partial curve, poor fit]	
COc1ccc(C)cc1NC(=O)C(NC(=O)c1cc(OC)c(OC)c(OC)c1)C(C)C (centres undefined)	inconclusive: 89.1 µM [inhibitor, single point]	
O=C1CCN(Cc2nc(-c3ccc(Cl)cc3)no2)CCN1		inactive: 4.62%
Cc1cc(C)cc(Oc2nc3c(c(=O)n(C)c(=O)n3C)n2Cc2ccc(F)cc2)c1	inconclusive: 56.2 µM [inhibitor, partial curve, poor fit]	
CN(C)CCCNC(=O)N1c2ccccc2Sc2ccccc21		inactive: -2.81%
CC(C)COc1ccc(C(=O)CCN2CCCCC2)cc1	inconclusive: 63.1 µM [inhibitor, partial curve, poor fit]	
CN(C)S(=O)(=O)c1cccc(-n2sc3ccccc3c2=O)c1	active: 31.6 µM	
CCN(CC)C(=S)Sc1c(-c2ccccc2)c2cc(Cl)ccc2[nH]c1=O	inconclusive: 50.1 µM [inhibitor, partial curve, poor fit]	
Cc1ccc(-c2nc(CS(=O)CC(=O)NCc3ccc(F)cc3)c(C)o2)cc1 (centres undefined)		inactive: -22.2%
CC(=O)N1CCCc2cc(S(=O)(=O)N3CCCC(C(=O)Nc4ccccc4C)C3)ccc21 (centres undefined)		inactive: 6.24%
CCNc1sc(C(=O)c2cccs2)c(N)c1C#N	inconclusive: 17.8 µM [inhibitor, full curve]	
Cc1ccc(-c2c(C(=O)N/N=C/c3c[nH]c4ccccc34)nnn2-c2nonc2N)cc1		inactive: -2.71%
CN1CCN(CC(=O)c2cc(C(C)(C)C)c(O)c(C(C)(C)C)c2)CC1	active: 70.8 µM	
O=C(Nn1c(COc2ccccc2)nc2ccccc2c1=O)C(Cl)(Cl)Cl	inconclusive: 63.1 µM [inhibitor, partial curve, poor fit]	
C#CCOc1ccc(/C=C2/C(=O)ON=C2C)cc1Cl	active: 44.7 µM	
CCN1C(=O)[C@H]2[C@@H](c3ccc(-c4ccc(F)cc4)c(OC)c3)N[C@@](C)(C(=O)OC)[C@H]2C1=O	inconclusive: 89.1 µM [inhibitor, single point]	
COC(=O)C1=C(C)N(Cc2ccccc2)C(=NCc2cccc(C(F)(F)F)c2)N[C@H]1c1cccc(F)c1		inactive: -2.86%

Two entries drawn at random from the list so far:
Compound	Potency	max response, negative = inhibition
Cc1cc(C)cc(Oc2nc3c(c(=O)n(C)c(=O)n3C)n2Cc2ccc(F)cc2)c1	inconclusive: 56.2 µM [inhibitor, partial curve, poor fit]	
CN(C)CCCNC(=O)N1c2ccccc2Sc2ccccc21		inactive: -2.81%
